Drawing on paper PMC11192394, this text covers binding for one molecule.

Assay [1] has as its target T1, Rrp1 DNA translocase (S. pombe) (UniProt O13762).
T1 sequence: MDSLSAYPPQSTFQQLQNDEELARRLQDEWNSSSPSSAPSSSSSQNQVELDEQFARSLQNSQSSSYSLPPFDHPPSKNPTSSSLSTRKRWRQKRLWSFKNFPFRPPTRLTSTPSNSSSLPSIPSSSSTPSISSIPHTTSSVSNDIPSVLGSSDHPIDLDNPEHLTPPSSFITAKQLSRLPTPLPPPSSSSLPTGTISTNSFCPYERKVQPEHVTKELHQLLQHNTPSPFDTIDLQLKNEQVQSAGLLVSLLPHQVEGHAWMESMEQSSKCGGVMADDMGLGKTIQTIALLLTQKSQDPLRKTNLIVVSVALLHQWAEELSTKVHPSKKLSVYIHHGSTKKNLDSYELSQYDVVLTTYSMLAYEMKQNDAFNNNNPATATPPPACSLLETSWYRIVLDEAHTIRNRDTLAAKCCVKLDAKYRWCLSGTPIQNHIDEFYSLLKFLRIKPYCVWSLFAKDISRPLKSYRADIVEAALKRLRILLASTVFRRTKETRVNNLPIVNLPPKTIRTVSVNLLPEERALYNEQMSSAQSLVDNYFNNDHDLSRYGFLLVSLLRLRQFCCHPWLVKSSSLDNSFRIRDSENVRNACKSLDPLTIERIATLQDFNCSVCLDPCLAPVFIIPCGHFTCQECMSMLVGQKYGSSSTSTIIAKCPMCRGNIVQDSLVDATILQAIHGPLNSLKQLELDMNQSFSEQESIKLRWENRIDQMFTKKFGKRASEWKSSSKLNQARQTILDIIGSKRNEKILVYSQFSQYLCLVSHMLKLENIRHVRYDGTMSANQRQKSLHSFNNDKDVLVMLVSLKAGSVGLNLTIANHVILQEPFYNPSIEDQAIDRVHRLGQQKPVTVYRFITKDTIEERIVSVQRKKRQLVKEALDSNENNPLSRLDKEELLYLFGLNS
Briefly: two-hybrid; Gal4-based Matchmaker Two-Hybrid System 3 (Clontech); fusions to GAL4 AD (pGADT7) and GAL4 DBD (pGBKT7) in S. cerevisiae AH109; selected on SD DO-2, spotted on high stringency SD DO-4 (without Leu, Trp, His, Ade); 3-5 days at 28°C.

For assay [2], the target named is T2, Rrp2 DNA translocase (S. pombe) (UniProt O60177).
T2 sequence: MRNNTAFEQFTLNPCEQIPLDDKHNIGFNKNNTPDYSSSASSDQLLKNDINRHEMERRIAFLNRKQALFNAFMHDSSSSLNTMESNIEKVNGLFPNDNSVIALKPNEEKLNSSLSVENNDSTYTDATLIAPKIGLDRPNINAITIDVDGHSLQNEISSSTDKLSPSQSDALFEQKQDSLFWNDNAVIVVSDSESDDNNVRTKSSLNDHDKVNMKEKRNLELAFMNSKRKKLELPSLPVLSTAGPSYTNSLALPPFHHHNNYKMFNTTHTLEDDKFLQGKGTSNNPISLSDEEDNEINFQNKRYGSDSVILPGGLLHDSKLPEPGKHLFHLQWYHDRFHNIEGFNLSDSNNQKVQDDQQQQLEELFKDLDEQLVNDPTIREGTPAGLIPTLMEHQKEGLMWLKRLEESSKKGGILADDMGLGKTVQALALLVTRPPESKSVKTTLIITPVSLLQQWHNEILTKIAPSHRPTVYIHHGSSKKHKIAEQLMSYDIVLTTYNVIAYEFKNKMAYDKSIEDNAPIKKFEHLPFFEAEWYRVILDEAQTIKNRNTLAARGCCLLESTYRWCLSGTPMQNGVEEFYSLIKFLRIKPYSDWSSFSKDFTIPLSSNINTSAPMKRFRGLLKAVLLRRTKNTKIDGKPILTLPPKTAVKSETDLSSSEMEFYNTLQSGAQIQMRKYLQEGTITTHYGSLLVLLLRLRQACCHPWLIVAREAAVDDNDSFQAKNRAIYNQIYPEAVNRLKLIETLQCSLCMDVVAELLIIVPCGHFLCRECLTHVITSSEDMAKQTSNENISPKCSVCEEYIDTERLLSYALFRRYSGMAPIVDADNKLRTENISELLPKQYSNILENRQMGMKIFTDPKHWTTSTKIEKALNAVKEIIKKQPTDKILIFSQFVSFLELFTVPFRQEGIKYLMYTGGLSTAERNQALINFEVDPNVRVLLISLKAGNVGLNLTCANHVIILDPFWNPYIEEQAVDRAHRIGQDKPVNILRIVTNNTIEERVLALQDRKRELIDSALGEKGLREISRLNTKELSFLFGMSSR
Described as above.

These are yes or no findings as the source states them, for the method shown.

B1: Srs2 helicase (enzyme, UniProt Q10213 1-887)
chain: METKSSYLKFLNEEQRISVQSPHKYTQILAGPGSGKTRVLTARVAYLLQKNHIAAEDLIIATFTNKAANEIKLRIEAILGNSEASKLISGTFHSIAYKYLVKYGKHIGLSSNWLIADRNDTQAIMKRLLDSLKKAKNPIASGIRGQELTPQNALNRITKLKSNGLLVKPGMDQLSLINGLEEPPKELQSHQSVELYRLYQTSLWKNNLADFDDLLLNFILLLQKQPDCVRNIKHILIDEFQDTSKIQYFLVKLLALQNSDITIVGDPDQSIYGFRSAEIRNLNQMSEDFEGTQVLHLERNYRSAKPILELALSIISQDKSRPKKGLKSNHISSLKPHYRLFETNNKESYWIAREIKRIVGSCPELIFYNDIAILVRSSSLTRSLEHALSELGVPYRMVGVNKFFDREEIRDLIAYLRVLANKDSTSLIRVINVPPRNIGKTKIDRIIFESERRGLTFWQTLNEVKNENILLSQRNDKSFLKSLKSFLCSISKLENRYLSNGHSATLSDLLLGILSEIKYYEYLVRKNKETVEEKWENVMELVQQSDNISCIFYELDYKISTIVLLQNFLTQIALVNEEQKEGESQKVTISTLHAAKGLEWPVVFLPCLCENIIPHSRSDDLDEERRLLYVGATRAQALLYLSSFKSVTGMFADMQNSDNVQDVSPFLKGEEMKRWVMESEIVFNEKIASEIGTILGRKSYGKITNLSGIGSNANHNGTKFENLGFQCCRVLAEAELKKRERVKSVNDYNKDETNFRKHNAKRSKTDIRSWFEKKQPIDSDVEISEPSRSASIMVANKDLNDRSFETVNRIVSTRASTTNASFMSSVRQNLGRGPSTKDQVINRTLREGHQDVVQHTDLNQSNTKVASARPAGSRKRLGVRLRVSRML
Turning to B1, the binding entry in assay [1] and in assay [2] was “no binding” each time.
